Results taken from article PMC6918084.
Results are given in words; binding and its absence hold for the method and conditions named. Binding can be weak; no strength is given.

Biological target: Rok1 (pGBKT7-Rok1) (Ustilago maydis)
Experiment: two-hybrid; Matchmaker 3 (Clontech), yeast AH109; pGBKT7-Rok1 with pGADT7-Kpp2 or pGADT7-Kpp6; spotted on SD without Leu/Trp and SD without Ade/His/Leu/Trp

Kpp6 (pGADT7-Kpp6) (from UniProt A0A0D1E5Y2) (enzyme)
binding: binds
